Test results as given in paper PMC6759600.
No constants are given. Whether binding was seen depends on the method and setting. In cells and extracts the contact can be indirect. Some entries that bind do so weakly or less than the wild type. Tags and fused reporters may be left off the sequences shown.

Protein sequences, listed by entry. Tags and fused reporters are not part of them.
UniProt Q96SW2: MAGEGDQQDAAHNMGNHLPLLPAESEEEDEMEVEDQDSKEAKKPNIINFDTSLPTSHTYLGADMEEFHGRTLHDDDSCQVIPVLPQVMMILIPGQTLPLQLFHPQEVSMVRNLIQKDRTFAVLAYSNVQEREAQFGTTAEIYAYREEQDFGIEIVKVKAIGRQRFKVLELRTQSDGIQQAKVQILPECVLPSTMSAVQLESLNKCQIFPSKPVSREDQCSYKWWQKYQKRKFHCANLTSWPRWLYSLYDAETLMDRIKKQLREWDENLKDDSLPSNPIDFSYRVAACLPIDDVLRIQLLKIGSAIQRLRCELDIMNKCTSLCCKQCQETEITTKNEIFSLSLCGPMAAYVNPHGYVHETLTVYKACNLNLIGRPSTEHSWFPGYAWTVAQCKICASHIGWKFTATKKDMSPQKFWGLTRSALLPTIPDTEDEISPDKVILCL

Experiments:
Myc-ECSIT = molecular target: T1, Myc-ECSIT (UniProt Q9BQ95); assay: co-IP; HEK293T cells co-transfected with Myc-ECSIT, Flag-TRAF6 and different concentrations of Flag-CRBN vector; IP with anti-Myc antibody, immunoblot with anti-Flag, anti-Myc or anti-TRAF6
T1 sequence: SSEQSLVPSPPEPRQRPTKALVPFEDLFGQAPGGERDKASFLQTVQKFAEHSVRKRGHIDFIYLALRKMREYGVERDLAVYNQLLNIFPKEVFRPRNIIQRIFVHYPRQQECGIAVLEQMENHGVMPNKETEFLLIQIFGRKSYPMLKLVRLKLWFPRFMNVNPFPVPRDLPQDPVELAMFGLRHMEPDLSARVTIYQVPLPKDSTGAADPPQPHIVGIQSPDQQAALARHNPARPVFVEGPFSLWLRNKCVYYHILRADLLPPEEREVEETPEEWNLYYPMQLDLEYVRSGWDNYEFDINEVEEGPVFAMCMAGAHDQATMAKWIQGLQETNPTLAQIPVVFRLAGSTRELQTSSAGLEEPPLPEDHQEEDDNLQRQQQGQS

Flag-ECSIT 1-100 = molecular target: T2, Flag-ECSIT 1-100 (UniProt Q9BQ95); assay: co-IP; HEK293T cells co-transfected, harvested 38 h after transfection; IP with anti-Flag antibody, immunoblot with anti-Flag or anti-Myc
T2 sequence: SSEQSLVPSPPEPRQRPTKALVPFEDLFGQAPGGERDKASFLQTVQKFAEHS

Flag-ECSIT 1-200 = molecular target: T3, Flag-ECSIT 1-200 (UniProt Q9BQ95); assay: as above
T3 sequence: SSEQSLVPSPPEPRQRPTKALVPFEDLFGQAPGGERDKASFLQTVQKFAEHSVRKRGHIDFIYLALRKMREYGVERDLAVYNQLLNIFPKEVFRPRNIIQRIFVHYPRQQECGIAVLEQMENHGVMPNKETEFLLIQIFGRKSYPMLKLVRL

Flag-ECSIT 1-300 = molecular target: T4, Flag-ECSIT 1-300 (UniProt Q9BQ95); assay: as above
T4 sequence: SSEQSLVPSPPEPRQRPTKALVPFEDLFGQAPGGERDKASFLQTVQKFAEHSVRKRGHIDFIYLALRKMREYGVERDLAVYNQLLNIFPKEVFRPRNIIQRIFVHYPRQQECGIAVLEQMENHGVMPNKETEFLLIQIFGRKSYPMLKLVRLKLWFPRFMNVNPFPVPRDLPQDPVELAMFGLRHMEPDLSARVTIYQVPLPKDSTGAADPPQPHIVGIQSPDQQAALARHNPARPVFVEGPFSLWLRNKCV

Flag-ECSIT wild type = molecular target: T5, Flag-ECSIT wild type (UniProt Q9BQ95); assay: as above
T5 sequence: T1 sequence

binding (Myc-ECSIT) | binding (Flag-ECSIT 1-100) | binding (Flag-ECSIT 1-200) | binding (Flag-ECSIT 1-300) | binding (Flag-ECSIT wild type) | Substance
binds |  |  |  |  | Flag-CRBN (from UniProt Q96SW2 1-442)
 | no binding | no binding | binds | binds | Myc-CRBN wild type (from UniProt Q96SW2 1-442)
